Source: PubChem BioAssay AID2810 (NMMLSC, 2010)
The list shows a part of the results. The main result of the screen is listed elsewhere. These columns were measured beside it and carry no call.

Assay: modulators of CD8 T cell-vesicle binding, confirmation, cherry-picked primary hits, two concentrations (AID 2810);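 also: lower values mean blocking of vesicle binding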;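 as to percent response (vesicle binding): ratio of mean FL2 vesicle stain of CD8+ cells to that row's control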
Details: 2C CD8+ T cell-vesicle binding, flow cytometry; for double positive events: CD8+/vesicle+ events
[1] = at 15.4 µM, stronger effect = lower value

Row | SMILES | double positive events (at 7.7 µM) | double positive events [1] | percent response (vesicle binding) (at 7.7 µM)
1 | CCOc1ccc(C2CC(c3ccccc3C)n3nc(N)nc3N2)cc1 (stereo unspecified) | 28.4% | 15.8% | 116%
2 | CC1CCCN(CC(=O)NC(=O)NC2CCCCC2)C1 (stereo unspecified) | 33.9% | 3.1% | 351%
3 | Cn1nc(-c2ccccc2)c(C#N)c1Sc1cccc(Cl)c1 | 22.6% | 23.3% | 558%
4 | COc1ccc(NC(=O)CSc2ccc(-c3ccccn3)nn2)cc1OC | 27.4% | 7.9% | 272%
5 | Cc1ccccc1CNC1CCCCC1 | 25.2% | 6.8% | 368%
6 | CN(C)C(CNS(=O)(=O)c1cc([N+](=O)[O-])ccc1Cl)c1ccco1 (stereo unspecified) | 26% | 25.6% | 186%
7 | O=C(Cn1ncc2c(=O)oc3ccccc3c21)NCCCN1CCCC1=O | 18.8% | 16.2% | 107%
8 | Cc1ccc(NC(=O)COC(=O)CCc2c[nH]c3ccccc23)c(C)c1 | 12.2% | 8.8% | 196%
9 | CCOc1cc(C(=O)NCc2ccc3c(c2)OCO3)cc(OCC)c1OCC | 28.4% | 12.2% | 224%
10 | CCCCNc1c(-c2ccc(OC)c(SC(C)CC)c2)nc2cc(C)ccn12 (stereo unspecified) | 13.3% | 10.6% | 67.8%
11 | Cc1ccc(N=CC=C2OC(C)(C)C(C)(C)O2)cc1 | 12.5% | 17.9% | 176%
12 | Cc1cc(C)c(NC(=O)COC(=O)C2CCCCC2)c(C)c1 | 33.1% | 6.7% | 491%
13 | S=c1[nH]nc(Cc2cccs2)n1-c1ccccc1 | 11.3% | 19.8% | 193%
14 | CCc1nnc(NC(=O)C2CCN(C(=O)NC3CCCCC3)CC2)s1 | 15.2% | 19.1% | 168%
15 | CCCN1CC23C=CC(O2)C(C(=O)O)C3C1=O (stereo unspecified) | 32.1% | 13% | 338%
16 | CCOc1ccccc1-n1c(SCC(N)=O)nnc1-c1ccc(O)cc1 | 9.1% | 22% | 139%
17 | C/C(=N\NC(=O)c1ccccc1[N+](=O)[O-])c1c(O)cc(C)oc1=O | 16.1% | 22.8% | 318%
18 | C=CCNC(=S)Nc1sc2c(c1C(N)=O)CCCC2 | 7.7% | 10.4% | 141%
19 | O=C1/C(=C/c2ccccc2)Oc2cc(OC(=O)N3CCOCC3)ccc21 | 7.9% | 26.5% | 182%
20 | COc1ccccc1C(=O)COC(=O)C1CCN(S(=O)(=O)c2ccc(C)c(C)c2)CC1 | 14.5% | 12.1% | 471%
21 | Cc1ccc(NC(=O)CN(C)C(=O)C(C)N2CCN(Cc3ccccc3C)CC2)cc1 (stereo unspecified) | 11.6% | 23% | 176%

Row | SMILES | double positive events (at 7.7 µM) | double positive events [1] | percent response (vesicle binding) (at 7.7 µM)
22 | COc1ccccc1CC(=O)Nc1ccccc1C(=O)O | 43% | 32.8% | 314%
23 | C[C@@H]1COC(=O)[C@H](Cc2ccc(F)cc2)CC/C=C\C[C@@H](CC(=O)NCCO)C(=O)N1 | 38.9% | 20.7% | 427%
24 | Cc1cc(Br)c(NC(=O)c2c(-c3c(Cl)cccc3Cl)noc2C)c(Br)c1 | 13.2% | 24.2% | 137%
25 | Cc1cccc(OCC(=O)Nc2ccccc2C(=O)N2CCOCC2)c1 | 14.9% | 4.9% | 196%
26 | COc1ccc(N2CCN(C(CNC(=O)C(=O)NCCC3=CCCCC3)c3ccco3)CC2)cc1 (stereo unspecified) | 28.8% | 12.6% | 237%
27 | CN(C)c1ccc(N=Cc2nc(-c3ccccc3)oc2OC(=O)c2ccccc2)cc1 | 9.5% | 35.5% | 156%
28 | CCCC(=O)NC(c1ccco1)c1cc([N+](=O)[O-])c2cccnc2c1O (stereo unspecified) | 10.1% | 13.9% | 255%
29 | CCC(=O)c1ccc2c(c1)OCCO2 | 31.7% | 10.4% | 220%
30 | CCOC1(c2ccccc2)CC1C(=O)N/N=C/c1cccc([N+](=O)[O-])c1 (stereo unspecified) | 21.2% | 15.8% | 130%
31 | Cc1c(Cl)cccc1NC(=O)c1cc(C2CC2)on1 | 21.8% | 7.9% | 244%
32 | COCCNc1nc2nonc2nc1N1C[C@H]2CC[C@H]1C2 | 39.5% | 14.5% | 320%
33 | CCCCCCCN(C(=O)CCl)c1ccccc1C | 20.3% | 8.2% | 225%
34 | O=C(c1ccc([N+](=O)[O-])o1)N(Cc1nnc(-c2ccccc2Cl)o1)C1CC1 | 17.6% | 15% | 108%
35 | COc1ccc(/C=N/NC(=O)c2ccco2)cc1Cn1nc(C)cc1C | 33.2% | 16.6% | 337%
36 | Cn1cccc1C(=O)NNC(=O)c1ccccc1Br | 9.2% | 25.4% | 142%
37 | O=C(NC1CCCC1)C1CC(c2ccc(F)cc2)=NO1 (stereo unspecified) | 36.6% | 13.2% | 248%
38 | CCOC(=O)c1cn(Cc2cccc(C)c2)nn1 | 21.7% | 20.3% | 755%
39 | Cc1nc(NC(=O)CSc2nc3cccnc3n2Cc2ccccc2)sc1C | 30.8% | 23.9% | 121%
40 | O=C(/C=C/c1ccc(F)cc1)N1CC[C@@]2(O)CCCC[C@H]2C1 | 27.6% | 15.1% | 138%
41 | O=C1N=c2ccccc2=C1c1[nH]c(=S)[nH]c1O | 10.4% | 22.7% | 287%
42 | CCOc1ccc(S(=O)(=O)N2CCC(C(=O)Nc3cc(S(C)(=O)=O)ccc3Cl)CC2)cc1 | 16.6% | 15.1% | 525%

Compounds 33–39 of the list above:
Row | SMILES | double positive events (at 7.7 µM) | double positive events [1] | percent response (vesicle binding) (at 7.7 µM)
33 | CCCCCCCN(C(=O)CCl)c1ccccc1C | 20.3% | 8.2% | 225%
34 | O=C(c1ccc([N+](=O)[O-])o1)N(Cc1nnc(-c2ccccc2Cl)o1)C1CC1 | 17.6% | 15% | 108%
35 | COc1ccc(/C=N/NC(=O)c2ccco2)cc1Cn1nc(C)cc1C | 33.2% | 16.6% | 337%
36 | Cn1cccc1C(=O)NNC(=O)c1ccccc1Br | 9.2% | 25.4% | 142%
37 | O=C(NC1CCCC1)C1CC(c2ccc(F)cc2)=NO1 (stereo unspecified) | 36.6% | 13.2% | 248%
38 | CCOC(=O)c1cn(Cc2cccc(C)c2)nn1 | 21.7% | 20.3% | 755%
39 | Cc1nc(NC(=O)CSc2nc3cccnc3n2Cc2ccccc2)sc1C | 30.8% | 23.9% | 121%
